Earlier results, collected in US6254883A, “Composition for transdermal delivery of drugs” (Novagent Oy, priority 1996, dated 2001).
At least one read-out could not be matched to a standard name with certainty.

Conditions: after oral drug administration; cited from earlier work

In the case of Nc1c2c(nc3ccccc13)CCCC2 [tacrine, 9-amino-1,2,3,4-tetrahydroacridine], the clinical tacrine concentration is listed as 5 to 30 ng/mL.
